# Measurements: patent US20240376195A1
# Amino acid sequences for entries named in this document (tags omitted). Residues count along the entry.
# UniProt O14931, residues 19-135: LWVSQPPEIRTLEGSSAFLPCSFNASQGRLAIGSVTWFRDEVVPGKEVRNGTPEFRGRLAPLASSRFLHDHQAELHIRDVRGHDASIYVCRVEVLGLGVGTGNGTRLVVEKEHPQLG
# These are yes or no findings as the source states them, for the method shown. Some entries that bind do so weakly or less than the wild type.
# Tests used:
# [1] = molecular target: NKp30 (form in the assay not stated) (UniProt O14931); experiment: flow cytometry, y axis NKp30 (MFI); cells not named in the legend or on the sheet
# [2] = molecular target: his-tagged human NKp30 (human) (UniProt O14931); experiment: SPR, antibody captured on anti-human Fc surface
binding [1],binding [2],Binder
binds,–,"mu183 (antibody, V domains shown) VH: QVQLQQPGSVLVRPGASVKLSCKASGYTFTSSWMHWAKQRPGQGLEWIGEIHPNRDNTNYNEKFKGKATLTVDTSSSTAYVDLSSLTSEDSAVYYCARSYYDYGGAYFDSWGQGTTLTVSS VL: QIVLTQSHKFMSTSVGDRVSITCKASQDVSTAVAWYQQKPGQSPKLLIYAASYRHIGVPDRFTGSGSGTDFTFTISSVQAEDLAVYYCQQHYSNPFTFGSGTKLEIK"
–,binds,"BGA1831 (antibody, human IgG1, kappa, V domains shown) VH: QVQLVQSGAVVVKPGASVKVSCKASGYTFTSSWMHWARQAPGQGLEWIGEIHPNRDNTNYNEKFKGRATLTVDTSTSTAYMELSSLRSEDTAVYYCARSYYDYGGAYFDSWGQGTLVTVSS VL: QIVLTQSPSSLSASVGDRVTITCKASQDVSTAVAWYQQKPGKSPKLLIYAASYRHIGVPSRFSGSGSGTDFTFTISSLQPEDFATYYCQQHYSNPFTFGGGTKVEIKR"
–,binds,"BGA1832 (antibody, human IgG1, kappa, V domains shown) VH: QVQLVQSGAEVKKPGASVKVSCKASGYTFTSSYMHWVRQAPGQGLEWMGEIHPNRDNTNYNEKFKGRVTMTVDTSTSTVYMELSSLRSEDTAVYYCARSYYDYGGAYFDAWGQGTLVTVSS VL: DIQLTQSPSSLSASVGDRVTITCKASQDVSTAVAWYQQKPGKAPKLLIYAASYRHIGVPSRFSGSGSGTDFTLTISSLQPEDFATYYCQQHYSNPFTFGGGTKVEIKR"
